Literature values in patent US11571412B2, “Thromboxane receptor antagonists in AERD/asthma” (Cumberland Pharmaceuticals Inc., priority 2015, dated 2023).
At least one structure is not confirmed: it was looked up by name or label, or the drawing left a doubt.

Legend:
Df-treated ptges−/− mice = conditions: cited from earlier work
[1] = system: subjects undergoing aspirin challenge/desensitization; conditions: P=0.004; cited from earlier work

CC(C)(O)c1ccccc1CC[C@@H](SCC1(CC(=O)O)CC1)c1cccc(/C=C/c2ccc3ccc(Cl)cc3n2)c1 [montelukast]
Increase in airway resistance on inhalation of Lysine aspirin (Df-treated ptges−/− mice): sensitive to interference
Protection of the lower airways from severe reactions [1]: significant effect
